Measurements reported in patent US20140378496A1, “OPIOID […] 3-HYDROXYA[…] TREATING PAIN” (SLX PHARMACEUTICALS, LLC, priority 2011, published 2014).
For at least one compound, name, drawing or mass did not settle the structure.

Test system: visceral pain model in mice
Assay: Acetic acid writhing protocol (abdominal contortion test), visceral pain model in mice
Type: in vivo, male Swiss Webster mice
Conditions: 45 min before 0.6% acetic acid IP

CC(=O)Nc1cccc(O)c1 [3-hydroxyacetanilide]
% AA (mean/SEM), percent antinociceptive activity (100 mg/kg PO): 17.10/7.46% | % AA (mean/SEM), percent antinociceptive activity (200 mg/kg PO): 20.05/7.71% | % AA (mean/SEM), percent antinociceptive activity (300 mg/kg PO): 24.00/7.00% | % AA (mean/SEM), percent antinociceptive activity (400 mg/kg PO): 35.42/10.33%
